Assay results from PubChem BioAssay AID1347076 (National Center for Advancing Translational Sciences (NCATS), 2019).
Among all 400,000 compounds or so, about 13,000 (3.2%) were called active. The shares of active, inactive and inconclusive entries below differ from those in the screen. The call rests on the fitted dose curve; in most records, active means well fitted cell-killing curve with a large enough effect; inconclusive means small, poorly fitted or top-dose-only effect, or effect the other way; inactive means flat fitted curve, though single readings scatter. Potencies of inconclusive entries are doubtful fits and often do not repeat.
Potency means the concentration at half of the fitted maximal effect.

Experiment: qHTS assay for MDR1-selective chemotherapeutics: Primary screen using the drug-selected MDR subline cells KB-V1; further: nearly all actives have a fitted effect of over 60% in size
Details: KB-V1 MDR cells viability, CellTiter-Glo, 72 h; series mostly up to 46.1 µM
Outline: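 In this primary screen, KB-V1 cells overexpressing P-gp are incubated with library compounds (lowest to highest concentration) for 72 h at 37 degrees C before a luminescent ATP viability read.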
In the case of `CC(C)(C)n1nnnc1C(c1ccc(Cl)cc1)N1CCSCC1` (stereo not drawn), the Potency is reported as inconclusive: 8.2 µM [cytotoxic, partial curve, poor fit]. In the case of `O=C(Cc1ccc2c(c1)CCCC2)Nc1ccc2ccccc2c1`, the Potency is reported as “inactive”. With `CC(C)NC(=O)c1ccccc1NC(=O)/C=C/c1cccc([N+](=O)[O-])c1` the Potency was inconclusive: 5.8 µM [cytotoxic, full curve]. With `Cc1ccc(C(=O)Nc2ccc(S(=O)(=O)NCc3ccco3)cc2)cc1` the Potency was inconclusive: 3.26 µM [cytotoxic, full curve, poor fit]. For `Fc1ccccc1N1CCN(C(c2ccnc3ccccc23)c2nnnn2-c2ccc3c(c2)OCCO3)CC1` (stereo not drawn), the Potency was inconclusive: 23.1 µM [cytotoxic, partial curve]. For `CC1=NN(C(=O)c2c(Br)cnn2C)C(O)(C(F)(F)F)C1` (stereo not drawn), the Potency was “inactive”. In the case of `COc1cc(-c2nnc(COC(=O)c3ccc([N+](=O)[O-])o3)o2)cc(OC)c1OC`, the Potency is reported as “inactive”. In the case of `COc1ccc2oc(=O)c(-c3nc(-c4ccc(C)c(C)c4)cs3)cc2c1`, the Potency is reported as inconclusive: 25.9 µM [rising, single point]. For `COc1ccc(C2SCCN2C(=S)Nc2ccc(Cl)cc2)cc1` (stereo not drawn), the Potency was active: 23.1 µM. With `O=C(Nc1ccc(Cl)c(C(F)(F)F)c1)C(Cc1ccccc1)NS(=O)(=O)c1cccc2nsnc12` (stereo not drawn) the Potency was “inactive”. In the case of `CC(=O)Nc1cccc(-c2ccnc3c2CC(C)(C(=O)Nc2cccnc2)O3)c1` (stereo not drawn), the Potency is reported as “inactive”. In the case of `OC(CNCc1cccc(Cl)c1)c1ccccc1` (stereo not drawn), the Potency is reported as inconclusive: 23.1 µM [cytotoxic, partial curve, poor fit]. For `CCOC(=O)c1c(C)[nH]c(C(=O)COC(=O)c2oc3ccccc3c2C)c1C`, the Potency was “inactive”. For `CCCCn1c(N)c(N(CCC(C)C)C(=O)C2=COCCO2)c(=O)[nH]c1=O`, the Potency was inconclusive: 5.17 µM [rising, partial curve]. With `CCN(CC)c1c([N+](=O)[O-])c(=O)n(C)c2ccccc12` the Potency was inconclusive: 3.26 µM [cytotoxic, partial curve, poor fit]. For `COc1ccccc1C(=O)Nc1ccnn1C1CCN(C/C=C/c2ccc(F)cc2)CC1`, the Potency was inconclusive: 20.6 µM [cytotoxic, single point]. With `Cc1ccc(C(=O)N2CCN3C(=O)c4ccccc4C23c2ccc(Cl)cc2)cc1` (stereo not drawn) the Potency was “inactive”. For `CC(=O)c1c(C)oc2ccc(NS(=O)(=O)c3cccs3)cc12`, the Potency was inconclusive: 29.1 µM [cytotoxic, single point]. For `CCCc1nc2ccccc2c(C(=O)OCC(=O)Nc2cccc(S(=O)(=O)N3CCOCC3)c2)c1CC`, the Potency was inconclusive: 8.2 µM [cytotoxic, partial curve, poor fit]. In the case of `COc1cccc(CC(=O)Nc2ccc(S(=O)(=O)Nc3nc(C)cc(C)n3)cc2)c1`, the Potency is reported as inconclusive: 20.6 µM [rising, single point]. For `O=c1[nH]c2ccccc2c2oc(CCl)nc12`, the Potency was inconclusive: 25.9 µM [cytotoxic, single point]. In the case of `O=C(/C=C/c1ccco1)NC(=S)Nc1nc(-c2ccc3ccccc3c2)cs1`, the Potency is reported as active: 5.17 µM. With `Cc1cccc(CCNC(=O)COc2cc(=O)n(C)c3ccccc23)c1` the Potency was inconclusive: 7.31 µM [cytotoxic, partial curve, poor fit]. In the case of `C=CCn1c(-c2cccn(Cc3cccc(Cl)c3)c2=O)n[nH]c1=S`, the Potency is reported as active: 23.1 µM. In the case of `O=C(C(c1ccccc1)c1ccccc1)N1CCN(CCN2C(=O)c3cccc4cccc(c34)C2=O)CC1`, the Potency is reported as “inactive”. With `COc1ccccc1NC(=O)c1ccccc1NC(=O)c1ccccc1C(=O)O` the Potency was inconclusive: 1.46 µM [rising, full curve, poor fit]. In the case of `COc1ccc(OC)c(CN2CCC(CNC(=O)Nc3cccc(Cl)c3)CC2)c1`, the Potency is reported as inconclusive: 8.2 µM [cytotoxic, partial curve]. In the case of `Cn1c(=O)c2ccccc2n(CC(=O)Nc2ccc3c(c2)OCCO3)c1=O`, the Potency is reported as inconclusive: 5.8 µM [cytotoxic, full curve, poor fit]. For `COc1ccc([N+](=O)[O-])cc1N(CC(=O)N1CCCC1)S(C)(=O)=O`, the Potency was inconclusive: 32.6 µM [rising, single point]. For `CC(C)n1nnnc1C1c2ccccc2C(=O)N1Cc1cccnc1` (stereo not drawn), the Potency was “inactive”. In the case of `O=C(NCc1ccc(Cl)cc1)N1CCN(C(=O)c2ccccc2)CC1`, the Potency is reported as “inactive”. For `COc1ccc(S(=O)(=O)N(C)C[C@H]2OCc3cn(nn3)CCCC(=O)N([C@H](C)CO)C[C@@H]2C)cc1`, the Potency was inconclusive: 10.3 µM [rising, single point]. For `COc1ccc(-c2nc(=S)n3ccsc3n2)cc1OC`, the Potency was inconclusive: 20.6 µM [cytotoxic, single point]. With `COc1ccc(C2C(C#N)=C(N)Oc3cc(C)n(Cc4ccncc4)c(=O)c32)cc1` (stereo not drawn) the Potency was inconclusive: 13 µM [rising, partial curve]. With `COc1ccc2c(c1)c1nnc(SC)nc1n2C` the Potency was inconclusive: 5.8 µM [cytotoxic, full curve]. In the case of `O=C(NCc1ccc(Cl)cc1)c1cccc2c1C(=O)N(CC1CCCO1)C2` (stereo not drawn), the Potency is reported as inconclusive: 9.2 µM [cytotoxic, partial curve, poor fit]. In the case of `COc1ccc(Nc2cc(C(=O)NCCCN(C)C3CCCCC3)c3ccccc3n2)c(OC)c1`, the Potency is reported as “inactive”. For `COc1cccc(C(C(=O)Nc2ccc(F)cc2)N(C(=O)Cn2nnc3ccccc32)C2CC2)c1` (stereo not drawn), the Potency was inconclusive: 18.4 µM [cytotoxic, partial curve, poor fit]. With `CCOC(=O)C1(CCOc2ccccc2)CCN(Cc2ccc(O)cc2)CC1` the Potency was “inactive”. For `CCCCOc1cc(C)nc(NCc2ccccc2)n1`, the Potency was inconclusive: 25.9 µM [cytotoxic, single point]. In the case of `O=C(NCc1ccccc1)c1cc(=O)c2ccccc2o1`, the Potency is reported as “inactive”. With `Cc1ccc(/C=C/c2nc3ccccc3c(=O)n2CCc2ccccc2)cc1` the Potency was active: 2.59 µM. For `COCCn1c(N)c(C(=O)NCc2cccs2)c2nc3ccccc3nc21`, the Potency was inconclusive: 23.1 µM [cytotoxic, single point]. With `Cc1ccc(S(=O)(=O)C(NC(=O)c2ccccc2)=C(Cl)Cl)cc1` the Potency was inconclusive: 23.1 µM [cytotoxic, single point]. For `C[C@@H]1CN([C@H](C)CO)C(=O)c2cc(C#CC(C)(C)O)cnc2O[C@@H]1CN(C)C(=O)C1CC1`, the Potency was “inactive”. For `Cc1ccc(S(=O)(=O)N2CCN(S(=O)(=O)c3ccc(C)cc3)C3OCCOC32)cc1` (stereo not drawn), the Potency was inconclusive: 2.31 µM [cytotoxic, partial curve, poor fit]. With `COc1ccc(-c2c(C#N)c(N)nc3sc(C(=O)c4ccccc4)c(N)c23)cc1` the Potency was active: 4.11 µM. With `Cc1ccc(NC(=S)N(CCCN(C)C)Cc2cc3cc4c(cc3[nH]c2=O)OCO4)cc1` the Potency was inconclusive: 29.1 µM [rising, single point]. For `CCOc1cc(/C=N\NC(N)=O)cc(Br)c1OC(C)C`, the Potency was active: 11.6 µM. In the case of `Cc1ccc(/C=N/NC(=O)c2csc3c2CCCC3)cc1`, the Potency is reported as inconclusive: 0.58 µM [cytotoxic, full curve, poor fit]. In the case of `CCSC1=C(C#N)C(c2ccc(Cl)cc2)C2=C(CCCC2=O)N1` (stereo not drawn), the Potency is reported as “inactive”. For `Cc1ccc2c(CN3CCN(Cc4ccccc4)CC3)cc(=O)oc2c1`, the Potency was “inactive”. For `COc1ccc(N(CC(=O)Nc2cc(OC)ccc2OC)S(=O)(=O)c2c(C)noc2C)cc1`, the Potency was inconclusive: 29.1 µM [cytotoxic, single point]. With `O=C(c1ccc(CS(=O)c2ccccc2Cl)o1)N1CCN(c2ccccn2)CC1` (stereo not drawn) the Potency was inconclusive: 3.66 µM [rising, partial curve, poor fit]. With `O=C(NC1CCCCC1)C(c1ccc2ncccc2c1)N(Cc1ccc2c(c1)OCO2)C(=O)c1cccs1` (stereo not drawn) the Potency was inconclusive: 0.0116 µM [cytotoxic, full curve, poor fit]. With `CCCN(CCC)CCNC(=O)c1nn(C)c2c1CS(=O)(=O)c1ccccc1-2` the Potency was “inactive”. With `CCn1ncc([N+](=O)[O-])c1C(=O)Nc1ccc(C(=O)N2CCCCC2)cc1` the Potency was inconclusive: 20.6 µM [cytotoxic, single point]. For `CCOC(=O)c1c(C)oc2nc(C)nc(N3CCN(c4cccc(C(F)(F)F)c4)CC3)c12`, the Potency was active: 16.4 µM. In the case of `CCOC(=O)c1cccc(NC(=O)CN2CCN(c3ccc(OC)cc3)CC2)c1`, the Potency is reported as active: 20.6 µM. For `COc1ccc(C2CC(=O)N(CC(=O)Nc3ccc(C(C)=O)cc3)c3ccccc3S2)cc1OC` (stereo not drawn), the Potency was inconclusive: 20.6 µM [cytotoxic, single point]. With `O=C(NCC(c1ccc2c(c1)OCO2)N1CCN(c2ccccc2F)CC1)c1ccccc1F` (stereo not drawn) the Potency was “inactive”. In the case of `CCCCNC(=S)N(Cc1c(C)noc1C)c1ccccc1`, the Potency is reported as inconclusive: 5.8 µM [cytotoxic, partial curve, poor fit]. In the case of `CC(C)n1c(-c2ccco2)csc1=Nc1cccnc1`, the Potency is reported as inconclusive: 31.6 µM [cytotoxic, single point]. For `Cc1ccc2nc(SCc3nnc(-c4cccs4)o3)[nH]c2c1`, the Potency was inconclusive: 10.3 µM [cytotoxic, partial curve]. For `Cc1cccc(N2CCN(C(=S)Nc3ccc4nc5n(c(=O)c4c3)CCCCC5)CC2)c1C`, the Potency was inconclusive: 2.59 µM [cytotoxic, partial curve]. For `COCCNC(=O)C(c1ccc(OC)cc1)N(C(=O)Cn1nnc2ccccc21)c1cccnc1` (stereo not drawn), the Potency was inconclusive: 32.6 µM [rising, partial curve, poor fit]. In the case of `CN(C)S(=O)(=O)c1cccc(NC(=S)Nc2cc(Cl)cc(Cl)c2)c1`, the Potency is reported as active: 18.4 µM. In the case of `O=C(CNC(=O)c1ccc(F)cc1)N/N=C/c1ccc(O)c([N+](=O)[O-])c1`, the Potency is reported as inconclusive: 7.31 µM [rising, partial curve, poor fit].
